Measured values published in PubChem BioAssay AID2685 (National Center for Advancing Translational Sciences (NCATS), 2010).
Some of the results follow. The main result of the screen is listed elsewhere. These columns were measured beside it and carry no call. Compounds called inactive in the main read-out are mostly missing here. The note in brackets gives the kind of curve behind each potency; many fits are weak.

Assay: qHTS Assay for Lipid Storage Modulators in Drosophila S3 Cells;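 for cell number change: cells counted by Cell Tracker Red CMTPX staining in the red channel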
Conditions: BODIPY lipid droplet fluorescence, 18-24 h; for cell number change: measured here: cell count max response, cells fed with added oleic acid
Summary of the method: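 Laser-scanning cytometry quantifies lipid droplet accumulation (500–530 nm total intensity; droplet/cell object ratio) in oleic acid-fed (400 uM added) Drosophila S3 cells treated with a concentration series. 20 uM Triacsin C defined 100% inhibition.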

[1] = measured here: cell number channel AC50, cells fed with added oleic acid
[2] = measured here: lipid fluorescence (Fed channel) AC50, cells fed with added oleic acid

SMILES | cell number change [%] | AC50 [1] | AC50 [2]
CCOc1ccc(N2CC(C(=O)Nc3cccnc3)CC2=O)cc1 (stereo not given) | 0.552 |  | 
Oc1c(Cl)cc(Cl)cc1C=Nc1ccccc1N1CCCC1 | -15.2 | 4.11 µM [falling, single point] | 2.91 µM [falling, full curve, poor fit]
COc1ccc(CNC(=O)C(CC(C)C)NC(=O)c2ccccc2C)cc1 (stereo not given) | 10.8 |  | 
Cc1ccsc1C(=O)NNC(=O)c1cccc(S(=O)(=O)N2CCCC2)c1 | 1.61 |  | 11.6 µM [falling, partial curve, poor fit]
CC(C)(C)C(=O)N1CCN(c2ccnc3cc(Cl)ccc23)CC1 | -7.09 |  | 8.2 µM [falling, partial curve]
Cc1cccc(NC(=O)c2cc3c([nH]c4ccccc43)c(C)n2)c1C | -14.5 | 2.06 µM [falling, partial curve] | 
Cc1cccc(N2CCN(C(=O)c3ccc4c(c3)OCCO4)CC2C)c1 (stereo not given) | -19.4 | 0.116 µM [falling, full curve, poor fit] | 10.3 µM [falling, partial curve]
FC(F)(F)c1nc(=S)c2ccccc2[nH]1 | -37.3 | 29.1 µM [falling, single point] | 29.1 µM [falling, single point]
Cc1ccccc1NC(=O)c1cccc(C(F)(F)F)c1 | 13.5 |  | 6.51 µM [rising, partial curve]
CCOC(=O)C1(CCSC)NC(c2ccco2)C2C(=O)N(C)C(=O)C21 (stereo not given) |  | 0.58 µM [rising, single point] | 
O=C(Nc1nccs1)C1CC=CCC1C(=O)OCC(F)(F)C(F)F (stereo not given) | -31.4 | 5.17 µM [falling, full curve] | 6.51 µM [falling, full curve]
COC(=O)c1nc(NC(=O)c2ccc(C(C)(C)C)cc2)n[nH]1 | 0.855 |  | 29.1 µM [falling, partial curve, poor fit]
Cc1cc(Cl)c(OCCOCCN2CCCC(C)C2)c(Br)c1 (stereo not given) | 14.6 |  | 0.164 µM [rising, full curve]
COc1ccc(-n2ccnc(SCC(=O)NCc3ccccc3Cl)c2=O)cc1 | -54.1 | 1.84 µM [rising, partial curve] | 3.66 µM [rising, partial curve]
CC(CC(F)(F)F)N1CCC(n2nccc2NC(=O)CCOc2ccccc2)CC1 (stereo not given) | -36 | 14.6 µM [falling, partial curve] | 
CCOC(=O)CN1C(=O)CSc2ccc(S(=O)(=O)N3CCCC3)cc21 | 23 |  | 0.13 µM [falling, full curve, poor fit]
OCCNc1nc(NCCC2=CCCCC2)nc(N2CCOCC2)n1 | -20.9 |  | 29.1 µM [falling, single point]
N/C(CCS(=O)(=O)c1ccc(Cl)cc1)=N\OC(=O)c1ccc(Cl)cc1 | -15.2 |  | 3.66 µM [falling, full curve]
O=S(=O)(c1ccc(Cl)nc1)N1CCCCC1 | 21.2 |  | 0.116 µM [falling, single point]
c1cncc(-c2nn3c(Cn4nnc5ccccc54)nnc3s2)c1 | -3.93 |  | 5.17 µM [falling, single point]

Look-ups from the results shown.
`COc1ccc(CNC(=O)C(CC(C)C)NC(=O)c2ccccc2C)cc1` (stereo not given) | cell number change [%]: 10.8
`Cc1cccc(N2CCN(C(=O)c3ccc4c(c3)OCCO4)CC2C)c1` (stereo not given) | AC50 [2]: 10.3 µM [falling, partial curve]
`COc1ccc(-n2ccnc(SCC(=O)NCc3ccccc3Cl)c2=O)cc1` | cell number change [%]: -54.1

Carrying on.

SMILES | cell number change [%] | AC50 [1] | AC50 [2]
Cc1ccc(NC2=NCCCCC2)cc1C | 21.5 |  | 8.2 µM [rising, partial curve, poor fit]
COc1ccc(-c2cc(C(=O)NCC(C)C)no2)cc1 | 8.23 |  | 
O=C(/C=C/c1ccc(S(=O)(=O)N2CCOCC2)cc1)NC(=S)Nc1ccc(Cl)cc1Cl | -17.8 |  | 
Cc1ccc(NC(=O)c2ccc(-n3cccn3)nc2)cc1 | 1.04 | 0.00517 µM [rising, full curve, poor fit] | 
Cn1c(CNC(=O)c2ccccc2F)nnc1SCCOc1ccccc1 | 12 |  | 
Cc1cc2c(cc(C(=O)NCc3cccnc3)n2Cc2ccc(Cl)cc2)o1 | -14 |  | 0.58 µM [rising, partial curve]
CCOC(=O)N1CCC(N(CCN(C)C)C(=S)Nc2ccc(OCC)cc2)CC1 | 9.62 |  | 6.51 µM [rising, single point]
C[C@H](NC(=O)c1[nH]cnc1C(=O)Nc1ccc(Cl)cc1)c1ccccc1 | -72.8 | 23.1 µM [falling, single point] | 
C1COCCNCCOCCOCCN1 | 25.8 |  | 29.1 µM [rising, single point]
CN(CCC#N)C(=O)COC(=O)/C=C/c1ccc2c(c1)OCO2 | -2.15 | 0.366 µM [rising, single point] | 0.326 µM [rising, partial curve, poor fit]
CCC1=NN(C(=O)c2ccc(Cl)cc2)C(O)(c2ccc(C)cc2)C1 (stereo not given) | -4.76 |  | 4.11 µM [falling, single point]
COc1ccc(S(=O)(=O)N2CCC(C(=O)N3CCN(c4ccccc4OC)CC3)CC2)cc1 |  | 6.51 µM [rising, partial curve, poor fit] | 
COc1ccc(CNc2cc(C)cc(C)c2)cc1OC |  |  | 29.1 µM [rising, single point]
CCCCCCSc1cccc(-c2nc3ccc(C)cn3c2NC2CCCCC2)c1 | -40.5 | 29.1 µM [falling, partial curve, poor fit] | 4.11 µM [falling, partial curve, poor fit]
CC(C)CCNC(=O)C1CC(c2cccc(F)c2)=NO1 (stereo not given) | 23.8 |  | 11.6 µM [rising, single point]
Cc1cccc(C(=O)OCC(=O)NNC(=O)c2cccs2)c1O | -25 | 0.00461 µM [falling, full curve, poor fit] | 
O=C(CNC(=O)c1cc(Cl)cc([N+](=O)[O-])c1)OCC(=O)N1CCCCC1 | -3.05 |  | 
Cc1cc(C)n(-c2nc3ccccc3nc2N2CCN(S(=O)(=O)c3ccc4ccccc4c3)CC2)n1 | 2.44 |  | 
O=C1CCCC2=C1C(c1ccc(Cl)cc1)C1C(=O)c3ccccc3C1=N2 (stereo not given) | 6.9 |  | 4.11 µM [falling, single point]
Cc1cccc2nc(COc3ccc4ccccc4c3Br)cn12 | 0.612 | 2.31 µM [rising, partial curve] | 

SMILES | cell number change [%] | AC50 [1] | AC50 [2]
CC(=O)c1c(C)[nH]c(C(=O)OCC(=O)N2CCN(S(=O)(=O)c3ccc(C)cc3C)CC2)c1C | -49.1 | 1.84 µM [falling, partial curve] | 
COc1ccc(C)cc1S(=O)(=O)N1CCN(Cc2ccccc2)CC1 | 63.6 | 2.59 µM [rising, full curve, poor fit] | 4.61 µM [rising, full curve]
COc1ccc(Cc2nnc(SCc3c(C)noc3C)n2C2CCCCC2)cc1OC | -8.77 |  | 
Cc1ccc([C@@H]2[C@@H]3C(=O)N(c4ccccc4)C(=O)[C@@H]3[C@]3(C)C(=O)N(Cc4ccccc4)CC(=O)N23)o1 | 15.3 |  | 
C=CCN(c1ccc(C(=O)Nc2ccc(C)cc2)cc1)S(C)(=O)=O |  |  | 6.51 µM [falling, single point]
Cc1cc(N2CCN(Cc3nc(-c4ccc(Cl)cc4)oc3C)CC2)cc(C)n1 | 13.7 |  | 0.82 µM [rising, partial curve]
Cc1cc(C)nc(Sc2ccc3nnc(C(F)(F)C(F)(F)C(F)(F)F)n3n2)n1 | 93.9 | 16.4 µM [rising, single point] | 18.4 µM [rising, partial curve]
CC1Cn2c(nnc2-c2cc3ccccc3cc2O)S1 (stereo not given) | -35.9 | 9.2 µM [falling, partial curve] | 14.6 µM [falling, partial curve, poor fit]
CCCOc1ccc(/C(O)=C2/C(=O)C(=O)N(CCCn3ccnc3)C2c2ccc(C)o2)cc1 (stereo not given) | -16.6 |  | 0.82 µM [falling, full curve]
COc1cc(OC)cc(-c2cc3nc(C)cc(N4CCN(C(=O)c5ccco5)CC4)n3n2)c1 | 4.76 |  | 3.26 µM [rising, partial curve]
COC(=O)CCCCCN1C(=O)NC(c2ccc(-c3ccccc3)cc2)C(C(=O)OCc2ccccc2)=C1C (stereo not given) |  |  | 16.4 µM [rising, partial curve]
CC1=C(C(=O)OCc2ccc3c(c2)OCO3)C(c2ccccc2OCc2ccccc2)NC(=O)N1 (stereo not given) | 8.2 | 1.3 µM [rising, full curve, poor fit] | 6.51 µM [rising, partial curve, poor fit]
Cc1nc2ccc(S(=O)(=O)NC(C(=O)NCc3ccco3)C(C)C)cc2s1 (stereo not given) | -27.8 |  | 29.1 µM [falling, single point]
CCC(Cc1ccccc1)NC(=O)c1ccc2nc(N3CCOCC3)sc2c1 (stereo not given) | 10.2 |  | 16.4 µM [rising, single point]
CC1=C(C(=O)NC2CCCc3c2cnn3-c2cccc(C)c2C)OCCO1 (stereo not given) | -56.7 | 0.0517 µM [falling, full curve] | 0.00517 µM [falling, full curve]
CC1(c2ccccc2Cl)NC(=O)N(CC(=O)NC(=O)NCc2ccco2)C1=O (stereo not given) | 4.86 | 6.51 µM [rising, single point] | 
O=C(Nc1ccc(S(=O)(=O)N2CCOCC2)cc1)c1ccccc1F | 6.32 |  | 29.1 µM [falling, single point]
CCOC(=O)C1=C(C)N=C2SC(CC)C(=O)N2C1c1cccc(F)c1 (stereo not given) |  |  | 0.326 µM [rising, partial curve, poor fit]
COc1ccc(Cl)cc1NC(=S)N1CC(C)OC(C)C1 (stereo not given) | 47 | 6.51 µM [rising, full curve] | 
